Reference: article PMC4621513
For at least one entry, the source does not settle the construct or the ends of the probe. At least one verdict was read from the data and is not stated in words by the source.

Sequences of proteins named here, by UniProt entry; tags and fusion partners are left off. A change or cut given only in a name is not applied to a line headed by its entry.
UniProt Q9HC16: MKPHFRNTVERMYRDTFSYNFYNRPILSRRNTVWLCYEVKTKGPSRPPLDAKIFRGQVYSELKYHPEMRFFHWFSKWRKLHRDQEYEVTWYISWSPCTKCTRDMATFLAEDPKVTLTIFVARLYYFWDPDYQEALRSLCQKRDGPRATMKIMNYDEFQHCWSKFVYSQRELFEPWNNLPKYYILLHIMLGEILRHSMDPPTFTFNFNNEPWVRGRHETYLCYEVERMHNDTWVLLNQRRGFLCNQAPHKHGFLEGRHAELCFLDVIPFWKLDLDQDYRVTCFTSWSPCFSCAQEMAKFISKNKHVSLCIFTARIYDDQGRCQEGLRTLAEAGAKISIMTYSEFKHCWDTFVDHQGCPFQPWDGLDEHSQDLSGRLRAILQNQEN

Biological target: APOBEC3G (A3G) (UniProt Q9HC16)
Assay: AFM force spectroscopy
Conditions: two-mode binding eliminated with 27 nt; 5' thiol; Force spectroscopy probing buffer: 50 mM HEPES, 100 mM NaCl, 5 mM MgCl2, 1 mM DTT (pH and temperature not given); recombinant protein; residues 1-384; protein details: mycHis (C-terminal); single-stranded DNA

“TTTTAAAGAGAAAAACCCAAAAGTGAA [27 nt deaminase specific ssDNA]”: binds.
